Assay results: PubChem BioAssay AID1508600 (Functional Genomics Laboratory (NCATS/FGL), 2020)
About 3,700 (7%) of roughly 53,000 sequences were called active.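 The calls were made as follows: active = gene knockdowns whose robust z-score for IL-1 alpha signal is at least 2 or at most -2, so actives lie on both sides; inactive = the rest.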 The list shows a part of the results.

assay: Components of the Cytosolic LPS Sensing Pathway: Gene Identification via Genome-wide siRNA Screen; details: RAW264.7 macrophages, IL-1a HTRF, actives lie on both sides, screened at 100 nM (by protocol), cells primed 5 h with Pam3CSK4 first;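 also: robust z of the log signal after scaling to non-targeting control siRNA wells of the plate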
Procedure, shortened: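 RAW264.7; siRNA 100 nM final, RNAiMAX, 48h 37 degrees C; Pam3CSK4 5 h; LipidA + TransIT-TKO 24 h; IL-1a HTRF; CellTiter-Glo viability; robust z vs negative-control median.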

Sequence	z-score
GGAAGGACUGAGGUAUCAUTT against Gtf2f2	inactive: 0.595
GCAGUGACCUGCCACUGAATT against Cd79b	inactive: 0.741
GGAUUCUGCUAGCAGUUCATT against Csn1s2a	inactive: -0.477
GGAAUAUUGAUGUUUCAACTT against Ncaph	inactive: 0.553
GGAAUGGAACUUGUCUGGGTT against Gpr37	inactive: -0.123
GGAACGAGAAAUGAUCCAGTT against Ap1g1	inactive: 0.221
GCGGAGGUUUCCUCCUUAATT against Fem1c	inactive: 0.8
GGGAAAGAAAGUGAUUGUCTT against Hsd11b1	inactive: 0.353
GGCUAGCAAAUCCUACUGGTT against Mpl	inactive: -1.51
GGGUUUCUGUUAAUCCACATT against H3c8	inactive: -1.38
GGCAAGGAAUCAAUGUCUCTT against Fscn2	inactive: -0.229
CGGAACCUUAUUUAAAACUTT against Sirt5	inactive: 0.732
GGAGGAAGAGGAGUAAAGGTT against Hoxa7	inactive: 0.052
GCUUACUUCCAAGGUCUACTT against Ptch2	inactive: 0.905
GGCCUUUAACUUGUAAAUATT against Hlx	inactive: -0.485
GGGCUCUAGCUAAAAACGATT against Med10	inactive: 1.23
GGAAGAAAAACAACCAAGUTT against Elovl4	inactive: 0.6
GCCGGCAUCAGCUGAUUUCTT against Igbp1	inactive: 0.382
GGCACAUGAGACAGCUUUUTT against Tmem160	inactive: 0.0311
GGAUCAGUCAUUUCUCUGCTT against Aox3	inactive: 0.0347
GGAUAUCGUUUUCCUUGUATT against Retn	inactive: -0.111
GGAGAAAAUUGAACUGAAATT against Cacna1c	inactive: 1.06

Look-ups from the list.
z-score with GGGCUCUAGCUAAAAACGATT against Med10 is entered as inactive: 1.23
z-score with GGGAAAGAAAGUGAUUGUCTT against Hsd11b1 is entered as inactive: 0.353
z-score with GGAACGAGAAAUGAUCCAGTT against Ap1g1 is entered as inactive: 0.221
z-score with GGCCUUUAACUUGUAAAUATT against Hlx is entered as inactive: -0.485

The listing continues.

Sequence	z-score
GCCAUUUGAAGGCUUUUGUTT against D130079A08Rik	inactive: -0.555
GCUAGUUUCCGUCGCUUUGTT against Cpeb4	inactive: 0.555
GGACAGUUCGUGUUUGGUUTT against Wdfy2	inactive: 0.0956
GGGCAAACUCACAUCUAAATT against Nsun5	inactive: -0.267
CGGUAGAGUGCUUACGCAATT against Camk2g	inactive: 0.869
GGACAUGGAUCAAAGUUCATT against Zfp40	inactive: -0.645
GCCUAUGGGAUUCGAAUUGTT against P2rx2	inactive: -0.484
CGCGUCAUUAUGAAAUGUUTT against Tmem163	inactive: 0.491
GAAAAAAUCUAUCUACCCUTT against Hoxb4	inactive: -0.219
GGCCAUGAGGAAAACAAGATT against Coro7	inactive: -1.01
CCGCUCAGUUCAUCUCAAATT against Snx15	inactive: -0.0551
GAACUACUACCGCUUAGCATT against Mrs2	inactive: 0.298
GCUAUGUUCUUGGAUGAUUTT against Vmn1r47	inactive: -1.58
CCCAAAGAAUUAUGAGUGUTT against Gpr149	inactive: -0.678
GGGUAGUUUAUUUCUUUGCTT against Mlh3	inactive: 0.826
GGACUUCCAGAGGUACUUGTT against Vmn1r229	inactive: -1.58
GGGACAAGCCAGAAACAACTT against Col19a1	inactive: 0.0299
CCAAGCUUGACCCUACACUTT against Olfr1121	inactive: -0.911
CCGUGUGACAUUUGAGUAUTT against Crhbp	inactive: 1.42
GGCCAUCAGAAGCAAGAUUTT against Akr1c21	inactive: -0.139
GGAAAUAUUUUCUCAGCAATT against Pcdhga1	inactive: 1.52
GGAUGACAGUGAAUUAGACTT against Retreg1	inactive: -1.15

Sequence	z-score
GCCUGAUUAUUUGUAAUUGTT against 4632404H12Rik	inactive: -0.5
CCGUGAUGGUAACAAAUCATT against Phyhipl	inactive: 0.294
GGAGGAGAACCCAUGUAACTT against Tcl1b1	inactive: -1.25
GCUAGUUAAGAAGCAACAATT against Rpl12	inactive: -0.641
GGACUUGACCCUGUCUUUGTT against Ostm1	inactive: 0.871
GCGGCAUGGACUUAGUAAATT against Fbxo5	active: 3.11
GGAAUCGGAACCAGUUCCCTT against Smyd5	inactive: 0.689
GGAUCUAUGGACGACCUUCTT against Kcnj10	inactive: -0.643
GCAGGACAUGUUGUUCCCUTT against Aars2	inactive: 1.8
GGAAUAGUGAAGGUACUUUTT against Cer1	active: 2.4
GCCAGAUUUCCGUCAGAACTT against Scube3	inactive: 0.713
GGACUUCGAGGACUACAUUTT against Abca3	inactive: 0.283
GCUAAAUGUUCUUCCAUUATT against Pola1	inactive: -0.186
GGACGAGGUCCUGUCCUUUTT against Ackr2	inactive: 1.46
GGAGACACGGAAGCCUGAATT against Klra4	inactive: -0.137
GGUGAAUGGAACAGGUAAGTT against Gas2l2	inactive: -1.44
CCUAAAUUUGAGGUAACCUTT against Zbtb21	inactive: 0.571
GGAGAAUGCCACAACUACATT against Cd320	inactive: 1.19
GGUUGAAGCCAUAAAGAAATT against Xrcc6	inactive: 1.65
GAUAAUUGGUUUACAGACUTT against Vmn1r23	inactive: -0.223
GGCCCAAUAGACAUAUAGCTT against Trim21	inactive: -0.408
GCGAACACUACUAUCGUUATT against Ipo11	inactive: -0.0465

Sequence	z-score
GAGCAUCGACAACCUCUCUTT against Hba-x	inactive: 1.73
GCGGGUUUAUUGUCUAGAATT against Mfn2	inactive: 0.669
GGUGGCUAUGUAAUCUCAGTT against B3gnt8	inactive: 0.133
GCCUAUACUAUAGAAUUACTT against Sgsm2	active: 2.2
GCCAACCAGGAUUUUACAATT against Fga	inactive: 0.463
CCAAGAGGGCGAUCAAAUGTT against Grtp1	inactive: 0.143
GCAUGAAUUUCGACAACCCTT against Lrp8	inactive: -0.126
GGACAGAACUGGCUUCCAUTT against Ctrb1	inactive: 2
GGAGUGCUUAAAAUUCAAGTT against Bcap29	inactive: 1.89
GGAAAGAGAUGAUUGAAAUTT against Cts3	inactive: 0.0164
GGAGUAUUGGAAGUUACAATT against Ccnc	inactive: -1.34
GGUAUCUCCAGUCCAGAGUTT against Mrpl34	inactive: -0.585
GGAGGUAGGAGCCAUAAGATT against Pter	inactive: -0.58
GGAGUUCUUCUAGCCAUGUTT against Olfr633	inactive: 0.0435
GGACAUAGCACGUCUUUUGTT against Ccdc50	inactive: -0.584
GCUAGUAAACAGAAUCCUCTT against Tubgcp2	inactive: 1.35
GGAAUCAAUGUGCUUCUAATT against Cyp39a1	inactive: -0.556
GGAUCUUGGUUACCCUAGUTT against Casp9	inactive: -1.93
GGACUGCCCUUUGGACAAATT against Vmn1r192	inactive: 1.37
GCCCAAUCUACACAGACCATT against Slc7a13	inactive: -0.939
GGUGAGGAGGCAAAGAUUCTT against Fkbpl	inactive: -0.82
GGAGAAUGAAAGGAUUCUGTT against Cabcoco1	inactive: 0.0483

Sequence	z-score
CCUAAUCUUUGUUCAGACCTT against 4933431E20Rik	inactive: 0.296
CCAUCAGCUUUGCAGGAUGTT against Olfr1410	inactive: -0.256
CCAAAUCUGGACGGCAAAATT against Sdc1	inactive: 0.243
GCUUUCUUAGCAUUAAAUCTT against Zkscan3	inactive: -0.274
CCGUGGGCAAACAAAUCUUTT against Hoxa3	inactive: -0.525
GGUCUGAGCCUUGUCUUUATT against Pdx1	active: 2.92
GCCUAGACAAAGUGAUGGATT against Vamp7	inactive: 0.554
GGAUACGCUUGUCCCACCATT against Mdm1	inactive: -0.649
GGCUCAUCUACCACGAGGUTT against Lce1m	inactive: 0.778
GGACUUCUUCUUGUACAACTT against Capn3	inactive: 1.03
GGAGGUGCGCUUCUUUAACTT against Chst5	inactive: 0.24
CCAUAGUAGCUACCUUGAUTT against Fam107a	inactive: 0.537
GCGACUUAUGAAAUACUGGTT against Ache	inactive: 0.0142
CGAUAAUGAAAGUGACCAUTT against Uri1	inactive: -0.0814
GGCAAGAUCCACAUCAACUTT against Tmem178b	inactive: -0.9
GCAGGCCAGAGUAGUCAUGTT against Them6	inactive: 0.579
GGCCACCAUUUCUGAAAUCTT against Tecr	inactive: 0.714
GGUCACUAGUUUAUUUUGATT against Aida	inactive: -0.205
CGGGCCAUUAACAACCUCUTT against 4930433I11Rik	inactive: -0.318
